Data: the supplement of paper PMC10849652
Some of the results follow.

Protein sequences, listed by entry. Tags and fused reporters are not part of them. Lines headed by an entry give the natural chain unless they say otherwise; changes in a name come on top.
UniProt O75298: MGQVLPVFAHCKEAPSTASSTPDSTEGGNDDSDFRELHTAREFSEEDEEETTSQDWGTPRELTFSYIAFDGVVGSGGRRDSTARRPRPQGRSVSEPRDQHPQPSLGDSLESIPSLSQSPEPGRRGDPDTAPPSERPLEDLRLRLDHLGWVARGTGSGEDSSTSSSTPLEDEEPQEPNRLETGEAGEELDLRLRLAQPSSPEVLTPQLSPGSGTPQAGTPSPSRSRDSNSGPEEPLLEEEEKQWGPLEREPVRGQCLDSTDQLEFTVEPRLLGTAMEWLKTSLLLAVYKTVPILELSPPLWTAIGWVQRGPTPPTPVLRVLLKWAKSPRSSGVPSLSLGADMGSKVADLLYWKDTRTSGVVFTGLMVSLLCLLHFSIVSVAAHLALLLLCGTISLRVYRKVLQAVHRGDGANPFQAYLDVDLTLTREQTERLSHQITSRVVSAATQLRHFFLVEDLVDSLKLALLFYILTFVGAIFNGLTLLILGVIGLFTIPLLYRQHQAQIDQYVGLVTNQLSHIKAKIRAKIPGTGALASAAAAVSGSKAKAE
UniProt Q9NRG7: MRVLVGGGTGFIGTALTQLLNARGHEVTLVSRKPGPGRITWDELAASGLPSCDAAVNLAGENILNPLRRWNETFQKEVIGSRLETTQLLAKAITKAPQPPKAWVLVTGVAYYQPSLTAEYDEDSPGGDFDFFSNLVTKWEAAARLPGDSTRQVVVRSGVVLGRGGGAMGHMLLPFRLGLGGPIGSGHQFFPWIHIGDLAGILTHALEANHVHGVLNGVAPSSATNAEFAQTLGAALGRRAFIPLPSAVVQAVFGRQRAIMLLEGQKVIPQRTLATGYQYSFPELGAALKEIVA
UniProt O43819: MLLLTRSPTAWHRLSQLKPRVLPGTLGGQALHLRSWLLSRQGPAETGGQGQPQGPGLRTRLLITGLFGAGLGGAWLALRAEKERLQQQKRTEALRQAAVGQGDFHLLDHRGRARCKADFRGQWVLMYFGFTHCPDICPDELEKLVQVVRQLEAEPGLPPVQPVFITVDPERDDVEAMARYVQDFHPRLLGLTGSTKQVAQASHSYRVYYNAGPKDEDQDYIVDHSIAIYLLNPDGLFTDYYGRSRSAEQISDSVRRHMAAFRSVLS
UniProt Q99470: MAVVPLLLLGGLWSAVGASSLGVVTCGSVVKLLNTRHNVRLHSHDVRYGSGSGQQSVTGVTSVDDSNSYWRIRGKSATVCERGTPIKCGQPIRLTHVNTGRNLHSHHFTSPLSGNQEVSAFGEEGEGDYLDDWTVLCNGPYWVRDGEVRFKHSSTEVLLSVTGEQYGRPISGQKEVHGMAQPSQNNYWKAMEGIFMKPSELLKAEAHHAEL
UniProt Q6UVJ0: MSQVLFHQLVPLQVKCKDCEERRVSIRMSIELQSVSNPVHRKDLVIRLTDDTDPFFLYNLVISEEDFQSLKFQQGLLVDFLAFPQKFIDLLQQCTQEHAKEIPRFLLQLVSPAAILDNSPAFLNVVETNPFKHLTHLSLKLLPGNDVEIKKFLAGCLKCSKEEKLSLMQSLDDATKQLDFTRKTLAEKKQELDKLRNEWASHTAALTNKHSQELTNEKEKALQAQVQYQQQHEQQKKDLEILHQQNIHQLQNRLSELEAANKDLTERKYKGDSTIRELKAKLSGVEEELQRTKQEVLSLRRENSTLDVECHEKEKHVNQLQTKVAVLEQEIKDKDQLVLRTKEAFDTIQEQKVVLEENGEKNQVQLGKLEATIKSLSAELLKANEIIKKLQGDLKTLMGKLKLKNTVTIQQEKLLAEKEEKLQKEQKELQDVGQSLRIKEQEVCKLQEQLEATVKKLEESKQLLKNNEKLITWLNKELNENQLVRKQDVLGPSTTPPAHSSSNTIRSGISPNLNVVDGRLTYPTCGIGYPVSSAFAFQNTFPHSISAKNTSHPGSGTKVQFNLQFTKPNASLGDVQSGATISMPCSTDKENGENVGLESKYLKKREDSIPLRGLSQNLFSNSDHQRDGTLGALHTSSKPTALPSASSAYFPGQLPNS

Assays:
Test in all cases: log2 fold change, soluble protein after heating vs DMSO (PISA); higher = thermal stabilisation; K562 cells, 10 uM, 30 min; active = over 0.2 and 3.5 SD of the protein, either way, in both replicates (recomputed)
bafetinib = compound: Cc1ccc(NC(=O)c2ccc(CN3CC[C@H](N(C)C)C3)c(C(F)(F)F)c2)cc1Nc1nccc(-c2cncnc2)n1 [bafetinib]
How it was run: (§1)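 Soluble protein was quantified by TMTpro 16plex LC-MS/MS after channel sums were equalised. It was obtained as the supernatant after 21,000xg for 90 min from pooled aliquots of K562 cells (2×10^6 cells/mL, 10 μM compound, 30 min) heated for 3 min across 48°C-58°C and extracted in PBS with 0.5% NP-40 at 4°C. Thermal stability values are relative to control samples and come from duplicates. They are given as log2 fold changes.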

nilotinib = compound: Cc1cn(-c2cc(NC(=O)c3ccc(C)c(Nc4nccc(-c5cccnc5)n4)c3)cc(C(F)(F)F)c2)cn1 [nilotinib]
How it was run: as §1

[1] = compound: Cc1nc(Nc2n[nH]c3c2CN(C(=O)N[C@H](CN(C)C)c2ccccc2)C3(C)C)c2sccc2n1
How it was run: as §1

dasatinib = compound: Cc1nc(Nc2ncc(C(=O)Nc3c(C)cccc3Cl)s2)cc(N2CCN(CCO)CC2)n1 [dasatinib]
How it was run: as §1

[2] = compound: Cc1ncc(-c2ccnc(Nc3ccc(S(C)(=O)=O)cc3)n2)n1C(C)C
How it was run: as §1

[3] = compound: Cn1cc(-c2ccc3c(c2)CCN3C(=O)Cc2cccc(C(F)(F)F)c2)c2c(N)ncnc21
How it was run: as §1

[4] = compound: Cn1cc(-c2ccc3nnc(C(F)(F)c4ccc5ncccc5c4)n3n2)cn1
How it was run: as §1

tipifarnib = compound: Cn1cncc1[C@@](N)(c1ccc(Cl)cc1)c1ccc2c(c1)c(-c1cccc(Cl)c1)cc(=O)n2C [tipifarnib]
How it was run: as §1

mubritinib = compound: FC(F)(F)c1ccc(/C=C/c2nc(COc3ccc(CCCCn4ccnn4)cc3)co2)cc1 [mubritinib]
How it was run: as §1

[5] = compound: NC(=O)Nc1cc(-c2cccc(F)c2)sc1C(=O)N[C@H]1CCCNC1
How it was run: as §1

[6] = compound: NC(=O)c1cnc(N[C@@H]2CCCC[C@@H]2N)nc1Nc1cccc(-n2nccn2)c1
How it was run: as §1

[7] = compound: NC1(c2ccc(-c3nc4ccn5c(=O)[nH]nc5c4cc3-c3ccccc3)cc2)CCC1
How it was run: as §1

[8] = compound: NCC(=O)Nc1ccc(-n2nc(C(F)(F)F)cc2-c2ccc3c(ccc4ccccc43)c2)cc1
How it was run: as §1

entinostat = compound: Nc1ccccc1NC(=O)c1ccc(CNC(=O)OCc2cccnc2)cc1 [entinostat]
How it was run: as §1

citarinostat = compound: O=C(CCCCCCNC(=O)c1cnc(N(c2ccccc2)c2ccccc2Cl)nc1)NO [citarinostat]
How it was run: as §1

silmitasertib = compound: O=C(O)c1ccc2c(c1)nc(Nc1cccc(Cl)c1)c1ccncc12 [silmitasertib]
How it was run: as §1

[9] = compound: O=C1NC(=O)C(c2cnc3ccccn23)=C1c1cn2c3c(cc(F)cc13)CN(C(=O)N1CCCCC1)CC2
How it was run: as §1

[10] = compound: c1cc(OCCN2CCCCC2)cc(-c2n[nH]c3ccc(-c4nnc[nH]4)cc23)c1
How it was run: as §1

[11] = compound: Cc1cccc(CC(=O)N2CCc3c2ccc(-c2cn(C)c4ncnc(N)c24)c3F)n1
How it was run: as §1

vorinostat = compound: O=C(CCCCCCC(=O)Nc1ccccc1)NO [vorinostat]
How it was run: as §1

**Q.** Which log2 fold change (bafetinib) does the source give for RTN2 (UniProt O75298) here?
**A.** inactive: -0.145

**Q.** And the log2 fold change (nilotinib)?
**A.** inactive: 0.031

**Q.** What about the log2 fold change [1] of the same target?
**A.** inactive: 0.039

**Q.** And the log2 fold change (dasatinib)?
**A.** inactive: 0.055

**Q.** And the log2 fold change [2]?
**A.** inactive: 0.004

**Q.** What about the log2 fold change [3] of the same target?
**A.** inactive: -0.027

**Q.** What about the log2 fold change [4] of the same target?
**A.** inactive: 0.161

**Q.** And the log2 fold change (tipifarnib)?
**A.** inactive: -0.056

**Q.** And the log2 fold change (mubritinib)?
**A.** inactive: 0.084

**Q.** And the log2 fold change [5]?
**A.** inactive: -0.037

**Q.** What about the log2 fold change [6] of the same target?
**A.** inactive: 0.104

**Q.** What about the log2 fold change [7] of the same target?
**A.** inactive: -0.051

**Q.** What about the log2 fold change [8] of the same target?
**A.** inactive: 0.07

**Q.** What about the log2 fold change (entinostat) of the same target?
**A.** inactive: -0.131

**Q.** What about the log2 fold change (citarinostat) of the same target?
**A.** inactive: 0.011

**Q.** What about the log2 fold change (silmitasertib) of the same target?
**A.** inactive: 0.004

**Q.** What about the log2 fold change [9] of the same target?
**A.** inactive: -0.031

**Q.** And the log2 fold change [10]?
**A.** inactive: -0.048

**Q.** Which log2 fold change (bafetinib) does the source give for SDR39U1 (UniProt Q9NRG7) here?
**A.** inactive: 0.681

**Q.** What about the log2 fold change [11] of the same target?
**A.** inactive: -0.071

**Q.** What about the log2 fold change (nilotinib) of the same target?
**A.** inactive: 0.621

**Q.** What about the log2 fold change [1] of the same target?
**A.** inactive: 0.014

**Q.** What about the log2 fold change (dasatinib) of the same target?
**A.** inactive: 0.059

**Q.** What about the log2 fold change [2] of the same target?
**A.** inactive: 0.189

**Q.** What about the log2 fold change [3] of the same target?
**A.** inactive: 0.749

**Q.** And the log2 fold change (tipifarnib)?
**A.** inactive: -0.149

**Q.** And the log2 fold change (mubritinib)?
**A.** inactive: 0.356

**Q.** What about the log2 fold change [5] of the same target?
**A.** inactive: -0.014

**Q.** And the log2 fold change [6]?
**A.** inactive: 0.095

**Q.** And the log2 fold change [7]?
**A.** inactive: 0.392

**Q.** And the log2 fold change [8]?
**A.** inactive: 0.518

**Q.** And the log2 fold change (entinostat)?
**A.** inactive: -0.118

**Q.** And the log2 fold change (vorinostat)?
**A.** inactive: -0.077

**Q.** And the log2 fold change (citarinostat)?
**A.** inactive: 0.024

**Q.** What about the log2 fold change (silmitasertib) of the same target?
**A.** inactive: 0.162

**Q.** What about the log2 fold change [9] of the same target?
**A.** inactive: 0.294

**Q.** And the log2 fold change [10]?
**A.** inactive: 0.265

**Q.** SCO2 (UniProt O43819) was tested. Which log2 fold change (bafetinib) did it give?
**A.** inactive: -0.058

**Q.** And the log2 fold change [11]?
**A.** inactive: -0.014

**Q.** What about the log2 fold change (dasatinib) of the same target?
**A.** inactive: -0.042

**Q.** And the log2 fold change [3]?
**A.** inactive: 0.107

**Q.** What about the log2 fold change [4] of the same target?
**A.** inactive: 0.039

**Q.** And the log2 fold change (tipifarnib)?
**A.** inactive: 0.014

**Q.** What about the log2 fold change (mubritinib) of the same target?
**A.** inactive: -0.035

**Q.** What about the log2 fold change [5] of the same target?
**A.** active: -0.598

**Q.** What about the log2 fold change [6] of the same target?
**A.** inactive: -0.078

**Q.** What about the log2 fold change [7] of the same target?
**A.** inactive: 0.015

**Q.** What about the log2 fold change [8] of the same target?
**A.** inactive: 0.006

**Q.** What about the log2 fold change (entinostat) of the same target?
**A.** inactive: -0.266

**Q.** What about the log2 fold change (vorinostat) of the same target?
**A.** inactive: 0.011

**Q.** What about the log2 fold change (citarinostat) of the same target?
**A.** inactive: -0.001

**Q.** And the log2 fold change (silmitasertib)?
**A.** inactive: -0.078

**Q.** What about the log2 fold change [9] of the same target?
**A.** inactive: -0.092

**Q.** And the log2 fold change [10]?
**A.** inactive: 0.118

**Q.** For SCAMP2 (UniProt H3BUB6), which log2 fold change (bafetinib) is on record?
**A.** inactive: -0.226

**Q.** And the log2 fold change (nilotinib)?
**A.** inactive: -0.056

**Q.** What about the log2 fold change [1] of the same target?
**A.** inactive: 0.03

**Q.** What about the log2 fold change (dasatinib) of the same target?
**A.** inactive: 0

**Q.** And the log2 fold change [2]?
**A.** inactive: -0.069

**Q.** And the log2 fold change [3]?
**A.** inactive: 0.062

**Q.** What about the log2 fold change [4] of the same target?
**A.** inactive: 0.095

**Q.** What about the log2 fold change (tipifarnib) of the same target?
**A.** inactive: 0.188

**Q.** And the log2 fold change (mubritinib)?
**A.** inactive: 0.023

**Q.** What about the log2 fold change [5] of the same target?
**A.** inactive: -0.31

**Q.** What about the log2 fold change [6] of the same target?
**A.** inactive: -0.392

**Q.** And the log2 fold change [7]?
**A.** inactive: 0.021

**Q.** What about the log2 fold change [8] of the same target?
**A.** inactive: -0.311

**Q.** And the log2 fold change (entinostat)?
**A.** inactive: -0.175

**Q.** What about the log2 fold change (citarinostat) of the same target?
**A.** inactive: -0.364

**Q.** What about the log2 fold change (silmitasertib) of the same target?
**A.** inactive: 0.129

**Q.** And the log2 fold change [9]?
**A.** inactive: -0.267

**Q.** And the log2 fold change [10]?
**A.** inactive: -0.118

**Q.** SDF2 (UniProt Q99470) was tested. Which log2 fold change (bafetinib) did it give?
**A.** inactive: 0.096

**Q.** And the log2 fold change [11]?
**A.** inactive: -0.025

**Q.** And the log2 fold change (tipifarnib)?
**A.** inactive: 0.243

**Q.** What about the log2 fold change (vorinostat) of the same target?
**A.** inactive: -0.057

**Q.** What about the log2 fold change [9] of the same target?
**A.** inactive: 0.007

**Q.** How did the log2 fold change (bafetinib) turn out when SASS6 (UniProt Q6UVJ0) was run?
**A.** inactive: -0.073

**Q.** And the log2 fold change [11]?
**A.** inactive: 0.029

**Q.** And the log2 fold change (nilotinib)?
**A.** inactive: -0.267

**Q.** What about the log2 fold change [1] of the same target?
**A.** inactive: -0.108

**Q.** What about the log2 fold change (dasatinib) of the same target?
**A.** inactive: -0.062

**Q.** What about the log2 fold change [2] of the same target?
**A.** inactive: 0.151

**Q.** What about the log2 fold change [3] of the same target?
**A.** inactive: -0.065

**Q.** And the log2 fold change [4]?
**A.** inactive: -0.066

**Q.** What about the log2 fold change (tipifarnib) of the same target?
**A.** inactive: -0.076

**Q.** And the log2 fold change (mubritinib)?
**A.** inactive: 0

**Q.** And the log2 fold change [5]?
**A.** inactive: -0.008

**Q.** And the log2 fold change [6]?
**A.** inactive: 0.052

**Q.** What about the log2 fold change [7] of the same target?
**A.** inactive: -0.447

**Q.** What about the log2 fold change [8] of the same target?
**A.** inactive: -0.154

**Q.** And the log2 fold change (entinostat)?
**A.** inactive: 0.068

**Q.** What about the log2 fold change (vorinostat) of the same target?
**A.** inactive: 0.098

**Q.** And the log2 fold change (silmitasertib)?
**A.** inactive: 0.228

**Q.** What about the log2 fold change [9] of the same target?
**A.** inactive: 0.042
